Experimental data: PubChem BioAssay AID1259308 (NCATS, 2017)
The whole screen tested about 59,000 reagents; shown is an unselected part. Over the whole deposit, about 1,510 (2.6%) were called active. 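Calls use total luciferase alone and ignore viability, so some active siRNAs may act by altering cell number.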 Reagents against one gene are numbered here.

- Assay: 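Genes whose loss raises luciferase production in HEK293 cells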 (primary screen)
- Cell system: human HEK293 embryonic kidney cells stably expressing firefly luciferase (HEK-CMV-Luc2-Hygro)
- Reagents: single siRNA against human genes, 0.8 pmol siRNA per well
- Time to read-out: 72 h
- Detection: 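Luciferase light (ONE-Glo) measured on one replicate plate set and viability (CellTiter-Glo) on the other, scaled to a negative control siRNA, with robust z-scores and luciferase per cell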
- Reading the numbers: total luciferase, z-score and total luciferase, % of control: higher = more reporter protein produced; luciferase per cell, z-score: higher = more reporter output per viable cell; viable cells, % of control: higher = more viable cells
- Call rule: 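Active when the median/MAD z-score for overall luciferase is greater than 3; a gene was taken forward for validation with new siRNAs if at least two of its three siRNAs passed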
- Calls: active = raised luciferase; inactive = no rise

Target gene | reagent no. | total luciferase, z-score | total luciferase, % of control | luciferase per cell, z-score | viable cells, % of control | activity call
CEBPD (CCAAT enhancer binding protein delta) | 1 | -0.378 | 74.4 | -0.872 | 105 | inactive
CEBPD (CCAAT enhancer binding protein delta) | 2 | -1.32 | 55.6 | -1.67 | 96.4 | inactive
CEBPD (CCAAT enhancer binding protein delta) | 3 | -0.104 | 79.8 | -0.303 | 96.6 | inactive
APH1B (aph-1B gamma-secretase subunit) | 1 | 2 | 122 | 1.09 | 102 | inactive
APH1B (aph-1B gamma-secretase subunit) | 2 | -0.922 | 63.6 | -0.346 | 77.8 | inactive
APH1B (aph-1B gamma-secretase subunit) | 3 | 0.113 | 84.1 | 0.288 | 87.1 | inactive
RFC1 (replication factor C subunit 1) | 1 | -0.246 | 77 | -0.171 | 90 | inactive
RFC1 (replication factor C subunit 1) | 2 | 0.804 | 97.9 | 0.828 | 87.9 | inactive
RFC1 (replication factor C subunit 1) | 3 | -0.313 | 75.7 | -0.384 | 93.6 | inactive
TEX11 (testis expressed 11) | 1 | -0.689 | 68.2 | -0.256 | 81.5 | inactive
TEX11 (testis expressed 11) | 2 | -0.527 | 71.4 | -0.295 | 86.2 | inactive
TEX11 (testis expressed 11) | 3 | -0.806 | 65.9 | -0.339 | 80.5 | inactive
SLC35F2 | 1 | 0.484 | 91.5 | 0.0745 | 100 | inactive
SLC35F2 | 2 | -0.0303 | 81.3 | -0.804 | 112 | inactive
SLC35F2 | 3 | -0.284 | 76.2 | -0.762 | 104 | inactive
MOG (myelin oligodendrocyte glycoprotein) | 1 | 0.242 | 86.7 | 0.536 | 84.1 | inactive
MOG (myelin oligodendrocyte glycoprotein) | 2 | 0.677 | 95.4 | 0.445 | 94.8 | inactive
MOG (myelin oligodendrocyte glycoprotein) | 3 | -1.87 | 44.7 | -1.02 | 65.4 | inactive
SST (somatostatin) | 1 | -1.27 | 56.6 | -0.537 | 72.9 | inactive
SST (somatostatin) | 2 | 1.05 | 103 | 0.384 | 104 | inactive
SST (somatostatin) | 3 | -0.906 | 63.9 | 1.02 | 54.5 | inactive
UBE2E3 (ubiquitin conjugating enzyme E2 E3) | 1 | -0.589 | 70.2 | -0.422 | 87.6 | inactive
UBE2E3 (ubiquitin conjugating enzyme E2 E3) | 2 | -0.412 | 73.7 | -0.0557 | 83.6 | inactive
UBE2E3 (ubiquitin conjugating enzyme E2 E3) | 3 | -0.079 | 80.3 | -0.822 | 111 | inactive
STX3 (syntaxin 3) | 1 | -0.538 | 71.2 | -0.714 | 96 | inactive
STX3 (syntaxin 3) | 2 | -1.82 | 45.7 | -2.24 | 92.1 | inactive
STX3 (syntaxin 3) | 3 | -1.42 | 53.7 | -1.14 | 81 | inactive
EPYC (epiphycan) | 1 | -0.942 | 63.1 | -0.907 | 89.6 | inactive
EPYC (epiphycan) | 2 | 0.468 | 91.2 | -0.0164 | 102 | inactive
EPYC (epiphycan) | 3 | 0.207 | 86 | 0.173 | 91.8 | inactive
GPC1 (glypican 1) | 1 | -0.224 | 77.4 | -0.217 | 91.6 | inactive
GPC1 (glypican 1) | 2 | -1.81 | 46 | -0.201 | 54.1 | inactive
GPC1 (glypican 1) | 3 | 0.262 | 87.1 | -0.0973 | 99.9 | inactive

Laid out differently: 3 of the entries above
| Target gene | reagent no. | total luciferase, z-score | total luciferase, % of control | luciferase per cell, z-score | viable cells, % of control | activity call |
| --- | --- | --- | --- | --- | --- | --- |
| APH1B (aph-1B gamma-secretase subunit) | 1 | 2 | 122 | 1.09 | 102 | inactive |
| APH1B (aph-1B gamma-secretase subunit) | 2 | -0.922 | 63.6 | -0.346 | 77.8 | inactive |
| APH1B (aph-1B gamma-secretase subunit) | 3 | 0.113 | 84.1 | 0.288 | 87.1 | inactive |

Further entries follow.
Target gene | reagent no. | total luciferase, z-score | total luciferase, % of control | luciferase per cell, z-score | viable cells, % of control | activity call
NACAD (NAC alpha domain containing) | 1 | 0.297 | 87.8 | 0.328 | 90 | inactive
NACAD (NAC alpha domain containing) | 2 | 0.418 | 90.2 | 1.01 | 77.2 | inactive
NACAD (NAC alpha domain containing) | 3 | 0.11 | 84.1 | 0.405 | 84.4 | inactive
NOTCH2NLA (notch 2 N-terminal like A) | 1 | -0.758 | 66.8 | -0.621 | 87.9 | inactive
NOTCH2NLA (notch 2 N-terminal like A) | 2 | -0.919 | 63.6 | -0.743 | 86.4 | inactive
NOTCH2NLA (notch 2 N-terminal like A) | 3 | -0.0986 | 79.9 | -0.9 | 113 | inactive
HINT1 (histidine triad nucleotide binding protein 1) | 1 | -0.024 | 81.4 | -0.32 | 99 | inactive
HINT1 (histidine triad nucleotide binding protein 1) | 2 | 0.0371 | 82.6 | -0.318 | 100 | inactive
HINT1 (histidine triad nucleotide binding protein 1) | 3 | -0.658 | 68.8 | -0.725 | 93.1 | inactive
SPNS3 | 1 | -1.98 | 42.5 | -2.25 | 85.9 | inactive
SPNS3 | 2 | -0.197 | 78 | 0.483 | 76.7 | inactive
SPNS3 | 3 | -0.725 | 67.5 | -0.507 | 86.2 | inactive
EFCAB13 (EF-hand calcium binding domain 13) | 1 | 3.91 | 160 | 4.23 | 58.5 | active
EFCAB13 (EF-hand calcium binding domain 13) | 2 | -0.762 | 66.7 | -0.826 | 92.7 | inactive
EFCAB13 (EF-hand calcium binding domain 13) | 3 | -0.423 | 73.5 | -0.712 | 99 | inactive
DHRS4 (dehydrogenase/reductase 4) | 1 | -0.29 | 76.1 | -0.0679 | 86.6 | inactive
DHRS4 (dehydrogenase/reductase 4) | 2 | 0.0574 | 83 | 0.223 | 87.5 | inactive
DHRS4 (dehydrogenase/reductase 4) | 3 | -0.439 | 73.1 | -0.605 | 95.9 | inactive
TRABD (TraB domain containing) | 1 | 0.636 | 94.5 | 0.341 | 96.6 | inactive
TRABD (TraB domain containing) | 2 | 0.649 | 94.8 | 0.627 | 89.8 | inactive
TRABD (TraB domain containing) | 3 | 2.22 | 126 | 1.55 | 93.7 | inactive
OR52H1 (olfactory receptor family 52 subfamily H member 1) | 1 | -0.548 | 71 | 0.5 | 69.5 | inactive
OR52H1 (olfactory receptor family 52 subfamily H member 1) | 2 | -0.887 | 64.2 | -0.881 | 90.5 | inactive
OR52H1 (olfactory receptor family 52 subfamily H member 1) | 3 | -0.0981 | 79.9 | -0.292 | 96.5 | inactive
